Laboratory results as given in patent US12239413B2, “2D material detector for activity monitoring of single living micro-organisms and nano-organisms” (SOUNDCELL HOLDING B.V., priority 2019, dated 2025).
At least one compound was matched to its structure with a doubt left.

System: E. coli bacteria
Experiment: Motion of suspended silanized exfoliated 10 nm few layer graphene with adhered E. coli, antibiotic susceptibility
Type: cell-based
Details: timeframe of twelve minutes
Description: In the embodiment of FIG. 2 a red helium-neon laser 114 is directed through optical components 115 on the 2D material layer 102 which is placed in a controlled humidity chamber 116. The intensity of the reflected light from the chip 109 is altered by the motion of the micro-organism 105 in the liquid droplet 111 that in turn moves the suspended 2D material 102. This intensity is then measured by a photodiode 117 connected to an oscilloscope 118. In another example a liquid droplet 111 containing micro-organism E. coli bacteria 105 and nutrition Lysogeny broth solution 112 has been dispensed on the sample receiver 101 comprising an array of silanized natural crystal exfoliated 10 nm few layer thick graphene as the suspended material 102. FIGS. 4a, 4b and 4c show the time traces of the suspended layer in a timeframe of twelve minutes.

## NC[C@H]1O[C@H](O[C@H]2[C@H](O)[C@@H](O[C@H]3O[C@H](CO)[C@@H](O)[C@H](N)[C@H]3O)[C@H](N)C[C@@H]2N)[C@H](O)[C@@H](O)[C@@H]1O [Kanamycin]
Adhered bacteria, FIGS. 4b, 4c
  fluctuations of the motion time trace (bacterial metabolic activity) after addition of antibiotic: No change in the fluctuations is observed
FIG. 4d
  change of variance of the time traces after adding antibiotic: almost no change in the variance
